Measured values as given in publication PMC13340245.

Sequences of proteins named here, by UniProt entry; tags and fusion partners are left off. A change or cut given only in a name is not applied to a line headed by its entry.
UniProt A0R7G5: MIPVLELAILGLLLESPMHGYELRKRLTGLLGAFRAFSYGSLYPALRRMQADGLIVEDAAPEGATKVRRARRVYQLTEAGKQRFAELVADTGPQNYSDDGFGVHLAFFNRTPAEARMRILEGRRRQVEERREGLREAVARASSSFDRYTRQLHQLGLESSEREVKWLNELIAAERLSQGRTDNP
UniProt A0R006: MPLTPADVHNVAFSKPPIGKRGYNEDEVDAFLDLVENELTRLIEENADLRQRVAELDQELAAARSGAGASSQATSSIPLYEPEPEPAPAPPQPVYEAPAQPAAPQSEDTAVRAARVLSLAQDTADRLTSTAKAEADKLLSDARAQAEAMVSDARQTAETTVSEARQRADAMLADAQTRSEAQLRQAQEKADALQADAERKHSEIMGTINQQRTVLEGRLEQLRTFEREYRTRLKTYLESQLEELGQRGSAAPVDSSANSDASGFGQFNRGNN

Target: NapM (Mycobacterium smegmatis), bacterial two-hybrid fusion (Mycobacterium smegmatis) (UniProt A0R7G5)
Experiment: two-hybrid; Bacterial Adenylate Cyclase Two-Hybrid System (BACTH); transformants on LB agar with IPTG, kanamycin, ampicillin and X-gal, 2 days at 30°C

DivIVA (Mycobacterium smegmatis), bacterial two-hybrid fusion (from UniProt A0R006 1-272)
binding: binds

Results are given in words; binding and its absence hold for the method and conditions named. A result given as binding can be weak or reduced; the word gives no strength.
